Each structure is given as a SMILES string.

The data set can be described thus: Concentration of the compound in blood after oral administration to rats (bioassay). The class given is in vivo, Male wister rats. The settings on record: rat, 50 mg/kg. The protocol: Male wister rats (7 weeks old) were administered orally with the test compound, and the change of the concentration of the compound in blood was measured.
Dosage of the test compound: 50 mg/kg
Quantitative method: Bioassy
test bacterium: Escherichia coli SC507)

With `CC1=C(C(=O)O)N2C(=O)[C@@H](NC(=O)[C@H](N)c3ccccc3)[C@H]2SC1` [YY, Cefalexin, reference compound], for the setting “1.0 hour”, the concentration at 1 h was 14800 ng/mL. Further, the concentration at 2 h (2.0 hours) worked out at 11200 ng/mL. The compound also had a concentration at 4 h (4.0 hours) of 3100 ng/mL.
